Measured values as given in PMC6209670.
These are yes or no findings as the source states them, for the method shown. Binding seen in cells or lysates may run through a third protein. Some binding calls cover weakened binding; strength is not graded here.

By UniProt entry, the sequences of proteins in these tests, tags left out.
UniProt Q7Z434: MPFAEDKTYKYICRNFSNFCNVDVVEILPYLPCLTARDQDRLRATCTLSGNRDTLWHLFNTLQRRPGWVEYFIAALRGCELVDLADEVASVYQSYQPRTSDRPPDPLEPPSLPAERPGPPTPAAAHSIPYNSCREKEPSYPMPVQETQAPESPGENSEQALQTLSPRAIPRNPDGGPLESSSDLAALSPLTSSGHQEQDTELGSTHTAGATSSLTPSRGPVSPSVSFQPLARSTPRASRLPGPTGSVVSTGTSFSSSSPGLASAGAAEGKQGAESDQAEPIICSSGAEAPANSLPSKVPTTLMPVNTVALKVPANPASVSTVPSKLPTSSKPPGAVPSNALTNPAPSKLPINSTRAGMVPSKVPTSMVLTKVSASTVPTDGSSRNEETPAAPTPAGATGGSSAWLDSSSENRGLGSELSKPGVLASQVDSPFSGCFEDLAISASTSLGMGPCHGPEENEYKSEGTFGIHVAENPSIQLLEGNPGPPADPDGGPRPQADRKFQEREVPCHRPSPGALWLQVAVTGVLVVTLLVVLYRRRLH
UniProt P19474: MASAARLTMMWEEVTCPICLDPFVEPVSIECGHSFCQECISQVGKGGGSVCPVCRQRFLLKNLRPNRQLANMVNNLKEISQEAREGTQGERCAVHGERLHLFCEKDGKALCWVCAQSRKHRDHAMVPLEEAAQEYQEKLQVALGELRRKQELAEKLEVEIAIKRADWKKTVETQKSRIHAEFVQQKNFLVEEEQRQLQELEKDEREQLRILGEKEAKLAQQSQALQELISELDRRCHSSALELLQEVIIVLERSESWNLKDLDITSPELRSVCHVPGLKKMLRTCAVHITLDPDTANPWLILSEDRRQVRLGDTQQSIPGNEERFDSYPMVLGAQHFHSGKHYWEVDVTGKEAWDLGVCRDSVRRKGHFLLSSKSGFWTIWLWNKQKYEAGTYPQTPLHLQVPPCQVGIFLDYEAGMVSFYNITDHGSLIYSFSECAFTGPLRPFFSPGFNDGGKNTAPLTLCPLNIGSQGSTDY

Molecular target: Flag-tagged MAVS, full-length (UniProt Q7Z434)
Assay: co-IP; Cells transfected with Flag-MAVS, with or without CVB3 infection (MOI = 5); RIPA lysates immunoprecipitated with anti-Flag beads, washed six times with PBS; Western blot with anti-TRIM21 and anti-Flag

- binding: binds
Substance: Tripartite motif-containing 21 (TRIM21) (from UniProt P19474 1-475)
